Laboratory results: PMC5650399
No constants are given. Whether binding was seen depends on the method and setting. Binding seen in cells or lysates may run through a third protein. Some results given as binding are weak or reduced against the parent protein; the word gives no strength.

Sequences of proteins named here, by UniProt entry; tags and fusion partners are left off.
UniProt O43524: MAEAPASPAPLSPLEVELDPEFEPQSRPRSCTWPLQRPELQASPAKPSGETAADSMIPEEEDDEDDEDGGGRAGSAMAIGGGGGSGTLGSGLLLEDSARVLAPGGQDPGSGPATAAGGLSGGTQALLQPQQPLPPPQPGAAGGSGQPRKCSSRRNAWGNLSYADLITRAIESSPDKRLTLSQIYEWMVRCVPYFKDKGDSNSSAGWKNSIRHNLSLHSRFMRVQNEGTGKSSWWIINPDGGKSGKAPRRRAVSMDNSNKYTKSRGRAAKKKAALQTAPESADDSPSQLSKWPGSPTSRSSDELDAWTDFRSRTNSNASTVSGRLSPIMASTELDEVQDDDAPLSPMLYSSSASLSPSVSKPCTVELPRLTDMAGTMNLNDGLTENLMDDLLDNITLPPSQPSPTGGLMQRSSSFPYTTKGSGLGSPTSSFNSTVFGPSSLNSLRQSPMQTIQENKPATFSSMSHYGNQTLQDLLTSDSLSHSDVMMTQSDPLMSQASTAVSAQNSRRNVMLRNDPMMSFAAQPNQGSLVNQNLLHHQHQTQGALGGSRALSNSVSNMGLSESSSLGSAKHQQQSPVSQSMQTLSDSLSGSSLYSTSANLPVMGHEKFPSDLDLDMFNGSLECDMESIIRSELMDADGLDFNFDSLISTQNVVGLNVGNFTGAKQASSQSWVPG
UniProt Q13555: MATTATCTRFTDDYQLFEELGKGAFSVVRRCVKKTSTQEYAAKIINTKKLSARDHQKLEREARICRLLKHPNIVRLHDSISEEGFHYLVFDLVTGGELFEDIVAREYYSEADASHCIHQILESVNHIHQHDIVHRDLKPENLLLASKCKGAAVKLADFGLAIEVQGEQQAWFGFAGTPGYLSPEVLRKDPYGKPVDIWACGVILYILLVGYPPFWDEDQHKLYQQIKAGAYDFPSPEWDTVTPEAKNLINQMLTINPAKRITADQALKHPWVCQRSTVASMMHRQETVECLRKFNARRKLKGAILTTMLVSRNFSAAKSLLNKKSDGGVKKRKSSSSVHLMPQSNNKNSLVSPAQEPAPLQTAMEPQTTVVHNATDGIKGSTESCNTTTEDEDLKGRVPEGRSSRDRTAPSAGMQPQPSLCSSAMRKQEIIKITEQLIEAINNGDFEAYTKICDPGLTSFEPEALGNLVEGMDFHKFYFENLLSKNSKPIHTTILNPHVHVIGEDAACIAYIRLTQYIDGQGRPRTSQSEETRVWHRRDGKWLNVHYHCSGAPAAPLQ

Target: full-length FOXO3a-FLAG in Jurkat cells (human) (UniProt O43524)
Test: co-IP; Jurkat cell lysates (0.5% NP-40, 10 mM NaCl, 10 mM Tris-HCl pH 8.0, 0.3 M sucrose, 3 mM MgCl2) immunoprecipitated with FLAG antibody and protein A magnetic beads overnight at 4 °C, washed with PBST; Western blot of the precipitates

- binding: binds
Substance: CaMKIIγ (endogenous, Jurkat) (from UniProt Q13555 1-558) (enzyme)
